Test results as given in article PMC7027753, “Interaction of N‐acetyl‐L‐glutamate kinase with the PII signal transducer in the non‐photosynthetic alga Polytomella parva: Co‐evolution towards a hetero‐oligomeric enzyme” (The Febs Journal, 2019).
No constants are given. Whether binding was seen depends on the method and setting. Binding can be weak; no strength is given.

Protein sequences, listed by entry. Tags and fused reporters are not part of them. Lines headed by an entry give the natural chain unless they say otherwise; changes in a name come on top.
UniProt Q6AUR2: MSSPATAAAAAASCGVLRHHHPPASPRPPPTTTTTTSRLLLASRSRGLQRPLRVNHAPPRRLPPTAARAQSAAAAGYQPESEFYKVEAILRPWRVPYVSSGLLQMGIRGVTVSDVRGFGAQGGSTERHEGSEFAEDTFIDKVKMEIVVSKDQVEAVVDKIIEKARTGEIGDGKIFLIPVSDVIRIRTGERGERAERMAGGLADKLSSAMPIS

Key:
[1] = molecular target: Polytomella parva N-acetyl-L-glutamate kinase (Polytomella parva) (UniProt A6XGV3); assay: SPR; as a2, 1000 nM PII incubated and injected with ADP / Mg2+-ADP (for PpaPII on PpaNAGK also 2 mM ADP injected during dissociation); both purified
[2] = molecular target: Polytomella parva N-acetyl-L-glutamate kinase (Polytomella parva) (UniProt A6XGV3); assay: SPR; His6-NAGK immobilised on a Ni2+-loaded NTA chip (FC2), strep-tagged PII injected as analyte (50-1000 nM), 25 °C, HBS (10 mM HEPES, 150 mM NaCl, 2 mM MgCl2, 0.005% NP-40, pH 7.5), FC2-FC1; without effector molecules; Kd estimated from ΔRU; both purified
[3] = molecular target: Polytomella parva N-acetyl-L-glutamate kinase (Polytomella parva) (UniProt A6XGV3); assay: SPR; as a2, 1000 nM PII incubated and injected with Mg2+-ATP and Gln (Mg2+-ATP alone, or with 2-OG, in some injections); both purified

- binding [1]: binds
- binding [2]: binds
- binding [3]: binds
Substance: Oryza sativa PII protein (from UniProt Q6AUR2)
